Test results: ChEMBL document CHEMBL4316593 (Eur J Med Chem, 2019)
This continues a long series; more values of the same kind are listed elsewhere.

Tests used:
Assay type in all cases: cell-based
Conditions in all cases: U-87MG ATCC
[1] = Inhibition of RTK/PI3K/AKT/mTOR signaling in human U87 cells assessed as up regulation of spectrin repeat containing nuclear envelope protein 1 gene expression at cytotoxic IC50 measured after 48 hrs relative to control
[2] = Inhibition of RTK/PI3K/AKT/mTOR signaling in human U87 cells assessed as up regulation of phosphoserine phosphatase gene expression at cytotoxic IC50 measured after 48 hrs relative to control
[3] = Inhibition of RTK/PI3K/AKT/mTOR signaling in human U87 cells assessed as down regulation of UGT8 gene expression at cytotoxic IC50 measured after 48 hrs relative to control
[4] = Inhibition of RTK/PI3K/AKT/mTOR signaling in human U87 cells assessed as up regulation of protein kinase N1 gene expression at cytotoxic IC50 measured after 48 hrs relative to control
[5] = Inhibition of RTK/PI3K/AKT/mTOR signaling in human U87 cells assessed as up regulation of SLC35E1 gene expression at cytotoxic IC50 measured after 48 hrs relative to control
[6] = Inhibition of RTK/PI3K/AKT/mTOR signaling in human U87 cells assessed as down regulation of TRIM62 gene expression at cytotoxic IC50 measured after 48 hrs relative to control
[7] = Inhibition of RTK/PI3K/AKT/mTOR signaling in human U87 cells assessed as up regulation of plakophilin 3 gene expression at cytotoxic IC50 measured after 48 hrs relative to control
[8] = Inhibition of RTK/PI3K/AKT/mTOR signaling in human U87 cells assessed as down regulation of TRA2B gene expression at cytotoxic IC50 measured after 48 hrs relative to control
[9] = Inhibition of RTK/PI3K/AKT/mTOR signaling in human U87 cells assessed as up regulation of collagen type XVIII alpha 1 chain gene expression at cytotoxic IC50 measured after 48 hrs relative to control
[10] = Inhibition of RTK/PI3K/AKT/mTOR signaling in human U87 cells assessed as down regulation of GLA gene expression at cytotoxic IC50 measured after 48 hrs relative to control
[11] = Inhibition of RTK/PI3K/AKT/mTOR signaling in human U87 cells assessed as up regulation of ATPase phospholipid transporting 11A gene expression at cytotoxic IC50 measured after 48 hrs relative to control
[12] = Inhibition of RTK/PI3K/AKT/mTOR signaling in human U87 cells assessed as down regulation of AKR7A2 gene expression at cytotoxic IC50 measured after 48 hrs relative to control
[13] = Inhibition of RTK/PI3K/AKT/mTOR signaling in human U87 cells assessed as up regulation of FLYWCH-type zinc finger 1 gene expression at cytotoxic IC50 measured after 48 hrs relative to control
[14] = Inhibition of RTK/PI3K/AKT/mTOR signaling in human U87 cells assessed as up regulation of RAB25, member RAS oncogene family gene expression at cytotoxic IC50 measured after 48 hrs relative to control
[15] = Inhibition of RTK/PI3K/AKT/mTOR signaling in human U87 cells assessed as up regulation of regulatory factor X5 gene expression at cytotoxic IC50 measured after 48 hrs relative to control
[16] = Inhibition of RTK/PI3K/AKT/mTOR signaling in human U87 cells assessed as down regulation of ZNF14 gene expression at cytotoxic IC50 measured after 48 hrs relative to control
[17] = Inhibition of RTK/PI3K/AKT/mTOR signaling in human U87 cells assessed as up regulation of proline rich nuclear receptor coactivator 1 gene expression at cytotoxic IC50 measured after 48 hrs relative to control
[18] = Inhibition of RTK/PI3K/AKT/mTOR signaling in human U87 cells assessed as down regulation of PMP22 gene expression at cytotoxic IC50 measured after 48 hrs relative to control
[19] = Inhibition of RTK/PI3K/AKT/mTOR signaling in human U87 cells assessed as down regulation of UBR4 gene expression at cytotoxic IC50 measured after 48 hrs relative to control
[20] = Inhibition of RTK/PI3K/AKT/mTOR signaling in human U87 cells assessed as up regulation of TMEM230 gene expression at cytotoxic IC50 measured after 48 hrs relative to control
[21] = Inhibition of RTK/PI3K/AKT/mTOR signaling in human U87 cells assessed as down regulation of TCF7 gene expression at cytotoxic IC50 measured after 48 hrs relative to control
[22] = Inhibition of RTK/PI3K/AKT/mTOR signaling in human U87 cells assessed as down regulation of USP1 gene expression at cytotoxic IC50 measured after 48 hrs relative to control
[23] = Inhibition of RTK/PI3K/AKT/mTOR signaling in human U87 cells assessed as up regulation of ADAM metallopeptidase domain 19 gene expression at cytotoxic IC50 measured after 48 hrs relative to control
[24] = Inhibition of RTK/PI3K/AKT/mTOR signaling in human U87 cells assessed as up regulation of AHDC1 gene expression at cytotoxic IC50 measured after 48 hrs relative to control
[25] = Inhibition of RTK/PI3K/AKT/mTOR signaling in human U87 cells assessed as down regulation of MICA gene expression at cytotoxic IC50 measured after 48 hrs relative to control
[26] = Inhibition of RTK/PI3K/AKT/mTOR signaling in human U87 cells assessed as up regulation of vitamin K epoxide reductase complex subunit 1 gene expression at cytotoxic IC50 measured after 48 hrs relative to control
[27] = Inhibition of RTK/PI3K/AKT/mTOR signaling in human U87 cells assessed as up regulation of multimerin 2 gene expression at cytotoxic IC50 measured after 48 hrs relative to control
[28] = Inhibition of RTK/PI3K/AKT/mTOR signaling in human U87 cells assessed as up regulation of BR serine/threonine kinase 2 gene expression at cytotoxic IC50 measured after 48 hrs relative to control
[29] = Inhibition of RTK/PI3K/AKT/mTOR signaling in human U87 cells assessed as up regulation of eukaryotic translation initiation factor 2 subunit gamma gene expression at cytotoxic IC50 measured after 48 hrs relative to control
[30] = Inhibition of RTK/PI3K/AKT/mTOR signaling in human U87 cells assessed as down regulation of NMT1 gene expression at cytotoxic IC50 measured after 48 hrs relative to control
[31] = Inhibition of RTK/PI3K/AKT/mTOR signaling in human U87 cells assessed as up regulation of TNFSF18 gene expression at cytotoxic IC50 measured after 48 hrs relative to control
[32] = Inhibition of RTK/PI3K/AKT/mTOR signaling in human U87 cells assessed as up regulation of protein phosphatase, Mg2+/Mn2+ dependent 1M gene expression at cytotoxic IC50 measured after 48 hrs relative to control

SMILES: CC(=O)C(=NNc1ccccc1C#N)C(C)=O
- log2FC [1]: 1.09
- log2FC [2]: 1.14
- log2FC [3]: -0.897
- log2FC [4]: 0.649
- log2FC [5]: 0.62
- log2FC [6]: -1.1
- log2FC [7]: 0.863
- log2FC [8]: -0.781
- log2FC [9]: 0.777
- log2FC [10]: -1.18
- log2FC [11]: 0.909
- log2FC [12]: -0.863
- log2FC [13]: 0.703
- log2FC [14]: 0.723
- log2FC [15]: 1.06
- log2FC [16]: -1.96
- log2FC [17]: 0.857
- log2FC [18]: -0.98
- log2FC [19]: -0.476
- log2FC [20]: 0.605
- log2FC [21]: -0.982
- log2FC [22]: -0.602
- log2FC [23]: 1.28
- log2FC [24]: 0.616
- log2FC [25]: -0.953
- log2FC [26]: 1.03
- log2FC [27]: 1.21
- log2FC [28]: 0.979
- log2FC [29]: 0.712
- log2FC [30]: -0.373
- log2FC [31]: 4.3
- log2FC [32]: 1.12
